These are yes or no findings as the source states them, for the method shown. Binding calls can cover weak binding; strength is not graded here.
Columns and labels:
[1] = molecular target: cyno FGFR2b protein (recombinant) (cyno); test: SPR
[2] = molecular target: soluble human FGFR2b protein (his tag, in-house generated) (human); test: SPR
[3] = molecular target: cyno FGFR2b protein (recombinant) (cyno); test: ELISA
[4] = molecular target: human FGFR2b protein (recombinant, coated on ELISA plates) (human); test: ELISA

Measured: binding

B1: BGAh9239 (antibody, human IgG1, kappa, V domains shown)
VH: QVQLVQSGAEVKKPGSSVKVSCKASGYTFSIYWLNWVRQAPGQGLEWMGQIYPENADTNYSGKFKGRVTITADKSTSTAYMELSSLRSEDTAVYFCARGGFDYWGQGTLVTVSS
VL: DIQMTQSPSSLSASVGDRVTITCRASENIYSNLAWYQQKPGKAPKLLIYTATNLAEGVPSRFSGSGSGTDFTLTISSLQPEDFATYYCQHFYGILYTFGQGTRLEIKR
binds: all assays above

B2: BGAh9179 (antibody, human IgG1, kappa, V domains shown)
VH: QVQLVQSGAEVKKPGASVKVSCKASGYTITDTYIHWVRQAPGQGLEWMGRIDPAEGNTMFASEFQGRVTMTADTSTSTVYMELSSLRSEDTAVYYCARSKIHYDYDEGFAYWGQGTLVTVSS
VL: DIVLTQSPDSLAVSLGERATINCRASESVDDYGYSFLHWYQQKPGQPPKLLIYRASNLESGVPDRFSGSGSGTDFTLTISSLQAEDVAVYYCQQSNQNPRTFGGGTKVEIKR
binds: all assays above

B3: BGAm1823 (antibody, V domains shown)
VH: EVQLQQSGAELVKPGASVKISCKASGYAFSIYWMNWVKQRPGKGLEWIGQIYPENGDTNYNGKFKGKATLTADKSSSTAYMHLSSLTSEDSAVYFCARGGFDYWGQGTTLTVSS
VL: NIVMTQSPASLSASVGETVTITCRASENIYSNLAWYQQKQGKSPQLLVYTATNLADGVPSRFSGSGSGTQFSLKINSLQPEDFGSYYCQHFYGILYTFGSGTRLEIK
binds: [3] | [4]

B4: BGAm1371 (antibody, V domains shown)
VH: QVQLKQSGAELVKPGASVKLSCTASGFNIKDTYIHWVKQRPEQGLEWIGRIDPANGNTMFASEFQGKATITAYTSSNTAYMQLSSLTSGDTAVYYCARSKIHYDYDEGFAYWGQGTLVTVSS
VL: NIVLTQSPPSLAVSLGQRATVSCRASESVDDYGYSFLHWYQQKPGQPPKLLIYRASNLESGIPARFSGSGSRTDFTLTINPVETDDVATYYCQQSNQNPRTFGGGTKLEIK
binds: [3] | [4]

Reference: patent US20250222125A1, “Anti-FGFR2b Antibodies, Conjugates and Methods of Use” (BeiGene, Ltd., priority 2024, published 2025)
